From PMC8304497

Target: T1, Neuronal cell adhesion molecule 2, isoform NCAM2.1 (mouse (endogenous in cerebral cortex)) (UniProt O35136)
T1 sequence: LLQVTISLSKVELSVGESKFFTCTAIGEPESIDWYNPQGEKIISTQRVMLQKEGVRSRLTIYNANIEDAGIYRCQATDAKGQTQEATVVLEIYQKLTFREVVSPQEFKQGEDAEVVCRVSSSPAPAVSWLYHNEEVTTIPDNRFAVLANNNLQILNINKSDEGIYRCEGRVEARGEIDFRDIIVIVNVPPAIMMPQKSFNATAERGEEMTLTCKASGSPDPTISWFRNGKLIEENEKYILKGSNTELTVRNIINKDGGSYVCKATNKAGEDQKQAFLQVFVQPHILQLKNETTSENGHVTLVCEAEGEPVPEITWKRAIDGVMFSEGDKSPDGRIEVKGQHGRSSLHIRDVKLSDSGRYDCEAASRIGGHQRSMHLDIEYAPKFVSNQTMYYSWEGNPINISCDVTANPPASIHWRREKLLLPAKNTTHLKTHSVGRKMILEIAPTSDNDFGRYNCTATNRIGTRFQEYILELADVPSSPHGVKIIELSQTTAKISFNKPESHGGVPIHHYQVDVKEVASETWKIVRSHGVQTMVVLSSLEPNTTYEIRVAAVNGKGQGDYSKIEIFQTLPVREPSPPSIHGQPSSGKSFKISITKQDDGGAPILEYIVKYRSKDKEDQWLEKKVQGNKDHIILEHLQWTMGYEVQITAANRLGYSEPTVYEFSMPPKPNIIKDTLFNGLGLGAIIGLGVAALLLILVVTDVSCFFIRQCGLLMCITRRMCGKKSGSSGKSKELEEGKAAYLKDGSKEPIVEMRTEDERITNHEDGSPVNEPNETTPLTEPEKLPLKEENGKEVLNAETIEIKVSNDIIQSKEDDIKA
Test: affinity purification with mass spectrometry; NCAM2 precipitated from the membrane fraction (lysis buffer with 1% Triton X-100, 150 mM NaCl) of postnatal mouse cortex with magnetic beads conjugated with anti-NCAM2.1 (EB06991) or anti-NCAM2 (AF778), o/n at 4 °C; urea elution, trypsin, LC-MS/MS, FDR ≤ 0.01%; control: non-conjugated beads

- binding: binds
B1: Reticulon-4 (protein, UniProt Q99P72 1-1162)
chain: MEDIDQSSLVSSSADSPPRPPPAFKYQFVTEPEDEEDEEDEEEEEDDEDLEELEVLERKPAAGLSAAPVPPAAAPLLDFSSDSVPPAPRGPLPAAPPTAPERQPSWERSPAASAPSLPPAAAVLPSKLPEDDEPPARPPAPAGASPLAEPAAPPSTPAAPKRRGSGSVDETLFALPAASEPVIPSSAEKIMDLKEQPGNTVSSGQEDFPSVLFETAASLPSLSPLSTVSFKEHGYLGNLSAVASTEGTIEETLNEASRELPERATNPFVNRESAEFSVLEYSEMGSSFNGSPKGESAMLVENTKEEVIVRSKDKEDLVCSAALHNPQESPATLTKVVKEDGVMSPEKTMDIFNEMKMSVVAPVREEYADFKPFEQAWEVKDTYEGSRDVLAARANMESKVDKKCFEDSLEQKGHGKDSESRNENASFPRTPELVKDGSRAYITCDSFSSATESTAANIFPVLEDHTSENKTDEKKIEERKAQIITEKTSPKTSNPFLVAIHDSEADYVTTDNLSKVTEAVVATMPEGLTPDLVQEACESELNEATGTKIAYETKVDLVQTSEAIQESIYPTAQLCPSFEEAEATPSPVLPDIVMEAPLNSLLPSTGASVAQPSASPLEVPSPVSYDGIKLEPENPPPYEEAMSVALKTSDSKEEIKEPESFNAAAQEAEAPYISIACDLIKETKLSTEPSPEFSNYSEIAKFEKSVPDHCELVDDSSPESEPVDLFSDDSIPEVPQTQEEAVMLMKESLTEVSETVTQHKHKERLSASPQEVGKPYLESFQPNLHITKDAASNEIPTLTKKETISLQMEEFNTAIYSNDDLLSSKEDKMKESETFSDSSPIEIIDEFPTFVSAKDDSPKEYTDLEVSNKSEIANVQSGANSLPCSELPCDLSFKNTYPKDEAHVSDEFSKSRSSVSKVPLLLPNVSALESQIEMGNIVKPKVLTKEAEEKLPSDTEKEDRSLTAVLSAELNKTSVVDLLYWRDIKKTGVVFGASLFLLLSLTVFSIVSVTAYIALALLSVTISFRIYKGVIQAIQKSDEGHPFRAYLESEVAISEELVQKYSNSALGHVNSTIKELRRLFLVDDLVDSLKFAVLMWVFTYVGALFNGLTLLILALISLFSIPVIYERHQAQIDHYLGLANKSVKDAMAKIQAKIPGLKRKAE

Results are given in words; binding and its absence hold for the method and conditions named. In cells and extracts the contact can be indirect. These calls come from enrichment with a bait or labelling near it, and not all partners need be listed.
